{"source": "paper PMC8635308", "about": "“Neuropilin 1 regulates bone marrow vascular regeneration and hematopoietic reconstitution” (Nature Communications, 2021)", "key": {"[1]": {"target": "T1, C-terminal His tagged mouse NRP1 (5994-N1, R&D systems) (mouse) (UniProt P97333)", "T1 sequence": "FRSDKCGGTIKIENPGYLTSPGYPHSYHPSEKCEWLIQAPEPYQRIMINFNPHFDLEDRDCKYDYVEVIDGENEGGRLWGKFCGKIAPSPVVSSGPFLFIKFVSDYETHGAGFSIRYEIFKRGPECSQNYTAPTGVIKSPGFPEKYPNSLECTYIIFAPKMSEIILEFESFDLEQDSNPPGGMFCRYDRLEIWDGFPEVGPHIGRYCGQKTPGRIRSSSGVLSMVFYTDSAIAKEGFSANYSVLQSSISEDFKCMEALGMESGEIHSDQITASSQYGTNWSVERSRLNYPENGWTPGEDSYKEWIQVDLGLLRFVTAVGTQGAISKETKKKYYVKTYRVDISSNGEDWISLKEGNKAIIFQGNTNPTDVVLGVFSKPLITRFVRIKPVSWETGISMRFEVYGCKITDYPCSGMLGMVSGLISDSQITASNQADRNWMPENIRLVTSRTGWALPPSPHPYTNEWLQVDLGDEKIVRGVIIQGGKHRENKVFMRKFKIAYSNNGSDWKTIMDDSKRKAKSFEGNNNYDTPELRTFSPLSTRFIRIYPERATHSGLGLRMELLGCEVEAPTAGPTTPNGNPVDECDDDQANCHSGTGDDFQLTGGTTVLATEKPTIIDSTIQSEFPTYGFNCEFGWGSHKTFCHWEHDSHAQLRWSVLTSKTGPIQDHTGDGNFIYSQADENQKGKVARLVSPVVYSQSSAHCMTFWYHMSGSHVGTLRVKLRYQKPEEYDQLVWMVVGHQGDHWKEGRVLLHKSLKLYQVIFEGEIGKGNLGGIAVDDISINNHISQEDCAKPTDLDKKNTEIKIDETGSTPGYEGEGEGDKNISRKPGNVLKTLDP", "test": "ELISA; sandwich ELISA; 6x His-tag microtiter plates coated with C-terminal His tagged mouse NRP1 at 50 ng/ml, 4 °C overnight; blocked with 1% BSA in PBS; SEMA3A Fc added at 0, 1, 2, 4, 8, 16, 32, 128 ng/ml for 2 h at RT; detected with HRP-conjugated SEMA3A antibody, read at 600 nm; both purified"}, "[2]": {"target": "T1, C-terminal His tagged mouse NRP1 (5994-N1, R&D systems) (mouse)", "test": "SPR; Pioneer SensiQ; mouse NRP1 immobilised on a PCH chip in 10 mM sodium acetate pH 5.0 (2307 RU for mouse SEMA3A Fc, 1565 RU for human SEMA3A Fc); running buffer 20 mM HEPES pH 7.5, 150 mM NaCl, 0.005% Tween-20; OneStep kinetics, analyte 100 nM mouse SEMA3A Fc or 50 nM human SEMA3A Fc, 75 μl/min; both purified"}}, "note": "No constants are given. Whether binding was seen depends on the method and setting. Some binding calls cover weakened binding; strength is not graded here. Sequences can lack the tags named with a protein.", "data": [{"binder": "recombinant human full length SEMA3A Fc (huSEMA3A, Lys26-Val771) (Fc fusion, UniProt Q14563 26-771) KNNVPRLKLSYKEMLESNNVITFNGLANSSSYHTFLLDEERSRLYVGAKDHIFSFDLVNIKDFQKIVWPVSYTRRDECKWAGKDILKECANFIKVLKAYNQTHLYACGTGAFHPICTYIEIGHHPEDNIFKLENSHFENGRGKSPYDPKLLTASLLIDGELYSGTAADFMGRDFAIFRTLGHHHPIRTEQHDSRWLNDPKFISAHLISESDNPEDDKVYFFFRENAIDGEHSGKATHARIGQICKNDFGGHRSLVNKWTTFLKARLICSVPGPNGIDTHFDELQDVFLMNFKDPKNPVVYGVFTTSSNIFKGSAVCMYSMSDVRRVFLGPYAHRDGPNYQWVPYQGRVPYPRPGTCPSKTFGGFDSTKDLPDDVITFARSHPAMYNPVFPMNNRPIVIKTDVNYQFTQIVVDRVDAEDGQYDVMFIGTDVGTVLKVVSIPKETWYDLEEVLLEEMTVFREPTAISAMELSTKQQQLYIGSTAGVAQLPLHRCDIYGKACAECCLARDPYCAWDGSACSRYFPTAKRRTRRQDIRNGDPLTHCSDLHHDNHHGHSPEERIIYGVENSSTFLECSPKSQRALVYWQFQRRNEERKEEIRVDDHIIRTDQGLLLRSLQQKDSGNYLCHAVEHGFIQTLLKVTLEVIDTEHLEELLHKDDDGDGSKTKEMSNSMTPSQKVWYRDFMQLINHPNLNTMDEFCEQVWKRDRKQRRQRPGHTPGNSNKWKHLQENKKGRNRRTHEFERAPRSV", "values": [{"measurement": "binding", "setting": "[1]", "value": "binds"}, {"measurement": "binding", "setting": "[2]", "value": "binds"}]}]}
